Test results taken from US20130085283A1, “GERANYLGERANYLACETONE DERIVATIVES” (Coyote Pharmaceuticals, Inc., priority 2011, published 2013).
At least one read-out could not be matched to a standard name with certainty.

Test system: Neuro2A cells
Assay: In vitro neuroprotection: Neuro2A cells cultured with GGA derivative with or without GGTI-298, cells that extended neurites counted
Type: cell-based, mouse
Settings: compound at 10 nM, normalized by the activity of CNS-102 (GGA trans-isomer)
Procedure: Neuro2A cells were cultured with a GGA derivative in the presence or absence of an inhibitor against a G-protein (GGTI-298). After differentiation was induced, cells that extended neurites were counted as an activity of the compound. The activities are shown in arbitrary units and were normalized by the activity of CNS-102 (GGA trans-isomer) in each parallel experiments.

Compound: CC(C)=CCC/C(C)=C/CC/C(C)=C/CCC(C)=CCOC(=O)c1cc([N+](=O)[O-])cc([N+](=O)[O-])c1
- Activity 10 nM: 221 arbitrary units
